Data on 17 compounds can be found in PubChem BioAssay AID180 (DTP/NCI, 2004).

The subject of the test is BDF1 mice, Adenocarcinoma 755 s.c., tumor weight T/C. Nature of the test: NCI In Vivo Anticancer Drug Screen. Data for tumor model Adenocarcinoma 755 (subcutaneous) in B6D2F1 (BDF1) mice. Particulars: T/C endpoint: mean tumor weight, higher T/C = larger tumour; for T/C: evaluated on day 12. The essentials: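 Tumor-bearing mice receive test compound while controls get vehicle alone. Antitumor effect is scored from survival or tumor dimensions as a T/C quotient.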

Setting [1] is: dose: 63.0 mg/kg/injection, schedule: Q01DX011 (ip), vehicle: carboxymethylcellulose (CMC).
Where [2] appears, read: dose: 250.0 mg/kg/injection, schedule: Q01DX011 (ip), vehicle: methylcellulose (MC).

The list does not hold the whole screen: it is rich in T/C values a quarter to a half above the control, in often repeated tests (any T/C) and in doses without a T/C. Other doses and runs of a compound stand elsewhere. T/C gives the treated animals as a percentage of the vehicle group. Schedules are NCI's codes, read here as Q, the interval in days (D) or hours (H), X, the number of doses. Some T/C values carry the count of animals alive at the toxicity check (mostly the fifth day); where none is given, no animal had died by that day. Some entries give survivors of the animals treated and no T/C: the source holds a T/C of zero for them, seemingly a mark for toxic or unscored doses. Survivors were counted at the toxicity check, usually on the fifth day, unless a day is given; later deaths do not show. Some doses were run more than once; their values stand side by side, smallest first. Some schedules carry Z or #; the key to these is not given.

On to `C[C@@H]1C[C@@H]([C@H](O)CC2CC(=O)NC(=O)C2)C(=O)[C@@H](C)C1`, for which the survivor count runs as follows: (dose: 4.31 mg/kg/injection, schedule: Q01DX011 (ip), vehicle: carboxymethylcellulose (CMC)) 6 of 10; under setting [1], 3 of 10; (dose: 76.0 mg/kg/injection, schedule: Q01DX011 (ip), vehicle: carboxymethylcellulose (CMC)) 4 of 10; (dose: 80.0 mg/kg/injection, schedule: Q01DX011 (oral), vehicle: alkali diluted with saline) 0 of 10 and 3 of 10; (dose: 80.0 mg/kg/injection, schedule: Q01DX011 (sc), vehicle: steroid suspending solution) 5 of 10; (dose: 80.0 mg/kg/injection, schedule: Q#A X022 (ip), vehicle: alkali diluted with saline) 0 of 10. Moreover, the survivor count is 0 of 10 (dose: 160.0 mg/kg/injection, schedule: Q01DX011 (im), vehicle: alkali diluted with saline); 0 of 10 (dose: 160.0 mg/kg/injection, schedule: Q01DX011 (ip), vehicle: alkali diluted with saline); 0 of 10 (dose: 160.0 mg/kg/injection, schedule: Q01DX011 (oral), vehicle: alkali diluted with saline); 0 of 10 (dose: 160.0 mg/kg/injection, schedule: Q#A X022 (ip), vehicle: alkali diluted with saline); 5 of 10 (dose: 200.0 mg/kg/injection, schedule: Q01DX001 (ip), vehicle: alkali diluted with saline); 0 of 10 (dose: 240.0 mg/kg/injection, schedule: Q03DX004 (ip), vehicle: alkali diluted with saline). The survivor count (dose: 320.0 mg/kg/injection, schedule: Q01DX006 (iv), vehicle: alkali diluted with saline) is 0 of 10; the survivor count (dose: 320.0 mg/kg/injection, schedule: Q01DX011 (im), vehicle: alkali diluted with saline) was 0 of 10; the survivor count (dose: 320.0 mg/kg/injection, schedule: Q01DX011 (ip), vehicle: alkali diluted with saline) is listed as 0 of 10; the survivor count (dose: 320.0 mg/kg/injection, schedule: Q01DX011 (oral), vehicle: alkali diluted with saline) is on record as 0 of 10; the survivor count (dose: 400.0 mg/kg/injection, schedule: Q01DX001 (ip), vehicle: alkali diluted with saline) was 0 of 10; the survivor count (dose: 800.0 mg/kg/injection, schedule: Q01DX001 (ip), vehicle: alkali diluted with saline) is recorded as 0 of 10. Also, the survivor count (dose: 1600.0 mg/kg/injection, schedule: Q01DX001 (ip), vehicle: alkali diluted with saline) is listed as 1 of 10. Also, the T/C reads like this: (dose: 10.0 mg/kg/injection, schedule: Q01DX006 (iv), vehicle: alkali diluted with saline) 135 % of control [9 of 10 alive]; (dose: 80.0 mg/kg/injection, schedule: Q01DX011 (ip), vehicle: alkali diluted with saline) 140 % of control [9 of 10 alive].
As to `CC(C)CN(C)/N=N/c1nc[nH]c1C(N)=O`, the survivor count (dose: 50.0 mg/kg/injection, schedule: Q01DX011 (ip), vehicle: carboxymethylcellulose (CMC)) was 6 of 10.
In the case of `Clc1ncnc2nc[nH]c12`, the survivor count reads like this: (dose: 200.0 mg/kg/injection, schedule: Q01DX011 (ip), vehicle: methylcellulose (MC)) 6 of 10; (dose: 400.0 mg/kg/injection, schedule: Q01DX011 (ip), vehicle: carboxymethylcellulose (CMC)) 1 of 10; (dose: 400.0 mg/kg/injection, schedule: Q01DX011 (ip), vehicle: methylcellulose (MC)) 1 of 10; (dose: 600.0 mg/kg/injection, schedule: Q01DX011 (im), vehicle: carboxymethylcellulose (CMC)) 0 of 10; (dose: 600.0 mg/kg/injection, schedule: Q01DX011 (sc), vehicle: carboxymethylcellulose (CMC)) 0 of 10; (dose: 600.0 mg/kg/injection, schedule: Q03DX004 (ip), vehicle: carboxymethylcellulose (CMC)) 0 of 10. Further, the survivor count is, setting by setting: (dose: 700.0 mg/kg/injection, schedule: Q01DX001 (ip), vehicle: carboxymethylcellulose (CMC)) 0 of 10; (dose: 700.0 mg/kg/injection, schedule: Q07DX002 (ip), vehicle: carboxymethylcellulose (CMC)) 0 of 10; (dose: 800.0 mg/kg/injection, schedule: Q01DX011 (oral), vehicle: carboxymethylcellulose (CMC)) 0 of 10; (dose: 1400.0 mg/kg/injection, schedule: Q01DX001 (ip), vehicle: carboxymethylcellulose (CMC)) 0 of 10; (dose: 1400.0 mg/kg/injection, schedule: Q07DX002 (ip), vehicle: carboxymethylcellulose (CMC)) 0 of 10.
`CN(CCO)/N=N/c1nc[nH]c1C(N)=O`: the survivor count (dose: 375.0 mg/kg/injection, schedule: Q01DX011 (ip), vehicle: carboxymethylcellulose (CMC)) is reported as 5 of 10.
For the compound `C=C(C)[C@H]1Cc2c(ccc3c2O[C@@H]2COc4cc(OC)c(OC)cc4[C@@H]2C3=O)O1`, the survivor count (dose: 3.0 mg/kg/injection, schedule: Q01DX011 (ip), vehicle: other) is reported as 2 of 10.
In the case of `CC(=O)OC1CCC(C2CCCCC2)CC1` (stereo not drawn), the T/C (dose: 15.0 mg/kg/injection, schedule: Q01DX011 (ip), vehicle: saline) was 134 % of control and the T/C (dose: 113.0 mg/kg/injection, schedule: Q01DX011 (ip), vehicle: saline) was 128 % of control [8 of 10 alive].
On to `O=C(Nc1ccc(C2=NCCN2)cc1)c1ccc(N=Nc2ccc(C(=O)Nc3ccc(C4=NCCN4)cc3)cc2)cc1`, for which, for the setting “dose: 60.0 mg/kg/injection, schedule: Q01DX011 (ip), vehicle: methylcellulose (MC)”, the T/C is 129 % of control.
In the case of `C[C@]12CC[C@H](O)CC1=CC[C@@H]1[C@@H]2[C@@H](O)C[C@@]2(C)[C@H]1CC[C@]2(C)O`, the T/C (dose: 25.0 mg/kg/injection, schedule: Q01DX011 (sc), vehicle: steroid suspending solution) is 137 % of control.
Take `C[C@@H]1C[C@H]2[C@@H]3CCC4=CC(=O)C=C[C@]4(C)[C@@]3(F)[C@@H](O)C[C@]2(C)[C@@]1(O)C(=O)CO`: the survivor count (dose: 14.0 mg/kg/injection, schedule: Q01DX011 (sc), vehicle: steroid suspending solution) is 7 of 12.
As for `CCCOP(=S)(N1CC1)N1CC1`, the survivor count (dose: 27.0 mg/kg/injection, schedule: Q01DX011 (ip), vehicle: methylcellulose (MC)) was 3 of 10.
Take `CC(=O)NCCc1ccccc1`: the survivor count (dose: 100.0 mg/kg/injection, schedule: Q01DX011 (ip), vehicle: other) is 4 of 10.
For `CSc1cc(NCc2ccccc2)nc(N)n1`, the survivor count (dose: 225.0 mg/kg/injection, schedule: Q01DX011 (ip), vehicle: methylcellulose (MC)) is on record as 4 of 10.
Regarding `Nc1nc(N)c(N=O)c(Nc2ccc(Br)cc2)n1`, the survivor count reads like this: (dose: 175.0 mg/kg/injection, schedule: Q01DX011 (ip), vehicle: methylcellulose (MC)) 4 of 10 and 6 of 10; (dose: 350.0 mg/kg/injection, schedule: Q01DX011 (ip), vehicle: methylcellulose (MC)) 4 of 10.
Turning to `Cc1cc2nc3c(=O)[nH]c(=O)nc-3n(CCOC(=O)CCC(=O)O)c2cc1C`, the T/C was 145 % of control [9 of 10 alive] (dose: 31.5 mg/kg/injection, schedule: Q01DX011 (ip), vehicle: carboxymethylcellulose (CMC)) and 145 % of control under setting [1]. Moreover, the survivor count runs as follows: under setting [2], 4 of 10; (dose: 320.0 mg/kg/injection, schedule: Q01DX011 (ip), vehicle: carboxymethylcellulose (CMC)) 2 of 10; (dose: 500.0 mg/kg/injection, schedule: Q01DX011 (ip), vehicle: methylcellulose (MC)) 5 of 10.
Consider `Cc1ccccc1Nc1cc(=S)nc(N)[nH]1`, for which the T/C (dose: 125.0 mg/kg/injection, schedule: Q01DX011 (ip), vehicle: methylcellulose (MC)) was 126 % of control [9 of 10 alive].
`Nc1nc(N)c2cnnn2n1`: for the setting “dose: 225.0 mg/kg/injection, schedule: Q01DX011 (ip), vehicle: saline”, the survivor count was 1 of 10.
`NC(=O)c1cc(N)nc(N)n1`: the survivor count under setting [2] was 1 of 10.
